For at least one compound, name, drawing or mass did not settle the structure.
Test system: CD34+ myeloblast cells in healthy BMMCs
Test: Effects of therapeutics on healthy bone marrow mononuclear cells: CD45 versus CD34 expression by flow cytometry
Assay type: cell-based
Settings: live healthy BMMCs, 1:3 dilutions, 100 μM to 0.0017 μM, after 24 hours

## Nc1ncn([C@H]2C[C@H](O)[C@@H](CO)O2)c(=O)n1 [Decitabine]
  loss / viability of the rare population of CD34+ myeloblast cells: does not affect the viability of the rare population CD34+ myeloblast cells
